Laboratory results reported in article PMC10082770.
Where two headings read alike, the source gives them in different places. Results are given in words; binding and its absence hold for the method and conditions named. Binding seen in cells or lysates may run through a third protein. These calls come from enrichment with a bait or labelling near it, and not all partners need be listed.

Amino acid sequences for entries named in this document (tags omitted).
UniProt Q9UMS4: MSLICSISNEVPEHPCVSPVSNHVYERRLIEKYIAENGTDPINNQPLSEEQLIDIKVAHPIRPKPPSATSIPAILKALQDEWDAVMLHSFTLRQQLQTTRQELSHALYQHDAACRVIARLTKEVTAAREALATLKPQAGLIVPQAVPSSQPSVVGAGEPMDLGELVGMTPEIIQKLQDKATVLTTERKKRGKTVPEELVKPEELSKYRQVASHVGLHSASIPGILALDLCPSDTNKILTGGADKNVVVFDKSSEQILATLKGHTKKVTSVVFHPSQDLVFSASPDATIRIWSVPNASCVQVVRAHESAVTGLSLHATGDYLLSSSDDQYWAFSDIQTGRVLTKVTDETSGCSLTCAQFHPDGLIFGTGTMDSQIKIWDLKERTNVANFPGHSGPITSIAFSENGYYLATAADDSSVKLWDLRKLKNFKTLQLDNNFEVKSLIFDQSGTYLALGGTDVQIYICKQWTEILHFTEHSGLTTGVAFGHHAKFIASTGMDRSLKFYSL
UniProt P07951: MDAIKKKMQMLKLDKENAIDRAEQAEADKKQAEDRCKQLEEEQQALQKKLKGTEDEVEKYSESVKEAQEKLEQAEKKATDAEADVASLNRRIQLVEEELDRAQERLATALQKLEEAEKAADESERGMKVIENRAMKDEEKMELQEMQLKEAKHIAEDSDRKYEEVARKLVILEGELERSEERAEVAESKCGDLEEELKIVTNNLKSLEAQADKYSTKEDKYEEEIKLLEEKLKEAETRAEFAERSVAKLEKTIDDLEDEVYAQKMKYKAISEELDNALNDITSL
UniProt P26038: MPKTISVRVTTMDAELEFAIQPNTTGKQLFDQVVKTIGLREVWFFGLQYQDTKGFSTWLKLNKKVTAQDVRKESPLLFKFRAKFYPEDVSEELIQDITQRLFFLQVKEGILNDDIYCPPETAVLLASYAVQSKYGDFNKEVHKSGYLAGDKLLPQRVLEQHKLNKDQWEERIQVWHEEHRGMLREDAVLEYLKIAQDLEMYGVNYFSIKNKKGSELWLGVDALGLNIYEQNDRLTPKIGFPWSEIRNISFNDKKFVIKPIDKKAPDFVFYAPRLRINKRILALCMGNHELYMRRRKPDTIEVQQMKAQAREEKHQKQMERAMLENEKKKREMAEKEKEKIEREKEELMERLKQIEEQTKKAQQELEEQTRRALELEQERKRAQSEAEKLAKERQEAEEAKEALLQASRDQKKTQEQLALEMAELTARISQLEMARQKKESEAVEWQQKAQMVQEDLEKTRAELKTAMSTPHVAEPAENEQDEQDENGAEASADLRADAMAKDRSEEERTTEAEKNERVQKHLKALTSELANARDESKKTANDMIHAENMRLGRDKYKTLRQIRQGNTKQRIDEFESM

What was measured:
[1] = target: PRPF19 immunoprecipitated from DLD1 cells for LC-MS/MS (UniProt Q9UMS4); test: affinity purification with mass spectrometry; DLD1 cells treated with MG132 (20 uM) for 5 h; lysate immunoprecipitated with anti-PRPF19 antibody or IgG, Protein A/G magnetic beads; silver staining and LC-MS/MS
[2] = target: PRPF19 immunoprecipitated from DLD1 cells for LC-MS/MS (UniProt Q9UMS4); test: as above; remark: listed apart in the source

| binding [1] | binding [2] | Molecule |
| --- | --- | --- |
| binds |  | TPM2 (from UniProt P07951 1-284) |
| binds |  | MSN (from UniProt P26038 1-577) |
|  | binds | MYL9 (endogenous) (protein, UniProt P24844 1-172) MSSKRAKAKTTKKRPQRATSNVFAMFDQSQIQEFKEAFNMIDQNRDGFIDKEDLHDMLASLGKNPTDEYLEGMMSEAPGPINFTMFLTMFGEKLNGTDPEDVIRNAFACFDEEASGFIHEDHLRELLTTMGDRFTDEEVDEMYREAPIDKKGNFNYVEFTRILKHGAKDKDD |
